Key:
MCF7 [1] = assay: cells; settings: Homo sapiens, MCF7, 72 h
MCF7 [2] = assay: cells; settings: Homo sapiens, MCF7, 96 h

Q: `CC(=O)O[C@H]1C(=O)[C@@]2(C)[C@H]([C@H](OC(=O)c3ccccc3)[C@]3(O)C[C@H](OC(=O)[C@H](O)[C@@H](NC(=O)c4ccccc4)c4ccccc4)C(C)=C1C3(C)C)[C@]1(OC(C)=O)CO[C@@H]1C[C@@H]2O` [PACLITAXEL] was tested. Which IC50 (MCF7 [1]) did it give?
A: 2.87 nM

Q: What about the IC50 (MCF7 [2]) of the same compound?
A: 0.5 nM
